Source: article PMC3157352
These are yes or no findings as the source states them, for the method shown. Some entries that bind do so weakly or less than the wild type.

Amino acid sequences for entries named in this document (tags omitted).
UniProt Q9NS91: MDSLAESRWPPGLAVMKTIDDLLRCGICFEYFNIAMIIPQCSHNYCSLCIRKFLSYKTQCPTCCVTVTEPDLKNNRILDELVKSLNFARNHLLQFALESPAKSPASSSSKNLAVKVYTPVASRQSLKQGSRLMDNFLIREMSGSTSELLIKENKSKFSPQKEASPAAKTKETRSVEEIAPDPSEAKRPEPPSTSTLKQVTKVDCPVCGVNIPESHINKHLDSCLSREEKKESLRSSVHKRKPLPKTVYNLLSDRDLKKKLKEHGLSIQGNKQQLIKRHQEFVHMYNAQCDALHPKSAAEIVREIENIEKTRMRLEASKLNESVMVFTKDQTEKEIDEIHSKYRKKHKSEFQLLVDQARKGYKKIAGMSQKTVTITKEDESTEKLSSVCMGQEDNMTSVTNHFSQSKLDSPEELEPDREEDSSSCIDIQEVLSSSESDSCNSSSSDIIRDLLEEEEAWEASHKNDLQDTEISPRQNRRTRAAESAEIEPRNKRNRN
UniProt P12004: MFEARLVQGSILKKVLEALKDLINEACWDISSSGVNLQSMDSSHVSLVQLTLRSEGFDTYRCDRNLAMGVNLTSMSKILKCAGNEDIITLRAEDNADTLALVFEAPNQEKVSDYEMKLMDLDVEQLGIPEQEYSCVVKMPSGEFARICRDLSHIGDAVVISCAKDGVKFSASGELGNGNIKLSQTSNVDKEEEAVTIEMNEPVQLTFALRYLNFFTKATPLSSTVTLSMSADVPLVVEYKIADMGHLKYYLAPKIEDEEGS

Target: human RAD18, yeast two-hybrid fusion (human) (UniProt Q9NS91)
Assay: two-hybrid; S. cerevisiae AH109, pGADT7 (Gal4 activation domain) and pGBKT7 (Gal4 binding domain) fusions; spot assay on SD-L-W-H and SD-L-W-H-A; RAD18 against the 9-1-1 components also with DNA damage (50 Gy IR, HU, MMS, CPT)

human PCNA, yeast two-hybrid fusion (from UniProt P12004 1-261)
binding: binds
